Reference: publication PMC10279920, “Single-molecule visualization of Pif1 helicase translocation on single-stranded DNA” (The Journal of Biological Chemistry, 2023)
Numbering of substitutions follows the chain as printed. Weaker means in comparison with the reference protein, sequence or condition of that experiment. Where a protein sequence is shown, tags need not be part of it. For part of these data: Construct, isoform or probe ends are uncertain for at least one entry. For part of these data: At least one verdict rests on a figure or table, not on a statement of the authors.

Key:
Assay in all cases: EMSA
Conditions in all cases: no ATP, 5 mM Mg2+, 35 mM Tris-HCl pH 7.5, 1 mM DTT, 5 mM MgCl2, 60 mM KCl, 0.1 mg/ml BSA, 30 min at 30 C, 5 nM ssDNA, recombinant protein, residues 40-859, protein details: N-terminal superfolder GFP, Ni-NTA purified, label: 5' Alexa647, single-stranded DNA
[1] = target: T1, GFP-Pif1 R465A (Saccharomyces cerevisiae) (UniProt P07271)
T1 sequence (looked up): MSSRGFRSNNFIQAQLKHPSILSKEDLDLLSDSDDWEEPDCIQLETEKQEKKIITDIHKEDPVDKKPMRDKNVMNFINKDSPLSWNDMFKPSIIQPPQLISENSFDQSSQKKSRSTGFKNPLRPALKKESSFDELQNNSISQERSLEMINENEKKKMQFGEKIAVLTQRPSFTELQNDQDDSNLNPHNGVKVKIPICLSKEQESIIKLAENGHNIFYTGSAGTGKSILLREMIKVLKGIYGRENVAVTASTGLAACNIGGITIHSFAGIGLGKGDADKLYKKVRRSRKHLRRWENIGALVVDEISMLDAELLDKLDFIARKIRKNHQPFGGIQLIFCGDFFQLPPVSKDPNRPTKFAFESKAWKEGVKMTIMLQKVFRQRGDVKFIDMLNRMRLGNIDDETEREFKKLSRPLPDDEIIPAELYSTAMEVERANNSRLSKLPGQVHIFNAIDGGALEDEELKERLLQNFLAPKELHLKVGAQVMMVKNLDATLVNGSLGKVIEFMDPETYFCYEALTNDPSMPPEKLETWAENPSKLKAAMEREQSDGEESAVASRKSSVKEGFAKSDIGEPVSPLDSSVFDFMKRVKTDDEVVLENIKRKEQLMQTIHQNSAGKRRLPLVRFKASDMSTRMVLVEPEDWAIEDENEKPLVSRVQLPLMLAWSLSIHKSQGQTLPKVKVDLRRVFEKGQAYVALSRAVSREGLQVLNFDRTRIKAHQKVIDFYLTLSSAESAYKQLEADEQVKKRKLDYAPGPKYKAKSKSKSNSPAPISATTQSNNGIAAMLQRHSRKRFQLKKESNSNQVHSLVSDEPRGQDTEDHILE

[2] = target: T2, GFP-Pif1 S703A (Saccharomyces cerevisiae) (UniProt P07271)
T2 sequence (looked up): T1 sequence (looked up) with A426R, S664A

[3] = target: T3, GFP-Pif1 H303A (Saccharomyces cerevisiae) (UniProt P07271)
T3 sequence (looked up): T1 sequence (looked up) with H264A, A426R

Measured: binding result

GCTAGCAGTAGCCAGCATCGAACGTACGATCGGTAACGTA [40-nt ssDNA]
binds more weakly: all assays above
